# Test results taken from PubChem BioAssay AID588497 (NMMLSC, 2011).
# The campaign covered roughly 360,000 compounds. About 780 (0.22%) were called active. Inconclusive results, whose numbers are uncertain, are shown with a selection of clear calls. No stated cut-off is given here; in the data, active means inhibition above about 35% (passing the limit was not always enough); inconclusive means no clear call, values can overlap the other calls. Where a SMILES comes first, the peptide text is derived from it. The star is where a group is joined. OBn = c1ccc(CO*)cc1
# Tested on: Botulinum neurotoxin type F light chain protease (Clostridium botulinum)
# Assay: BoNT/F light chain protease inhibitors, primary screen, biochemical, flow cytometry, MLPCN library (AID 588497); further: plate controls were buffer without enzyme for full effect and enzyme alone for no effect
# Details: Multiplex microsphere protease cleavage assay, at 10 µM, active compounds read high
row,Compound,inhibition
1,O=c1[nH]nc(SCCS(=O)(=O)c2ccc(F)cc2)n1-c1ccccc1C(F)(F)F,inconclusive: 3.8%
2,CCN(CC)C(=O)CN1CCC(c2nc3cc(C)c(C)cc3[nH]2)CC1,inconclusive: -9.9%
3,Cc1ccc(S(=O)(=O)NCC2CCCO2)cc1 (centres undefined),inconclusive: 1.4%
4,O=C(CSc1nnc2n1CCCN2)c1ccc([N+](=O)[O-])cc1,inconclusive: 2.9%
5,CC(NC(=O)c1ccccc1N)c1ccccc1 (centres undefined),inactive: 7.3%
6,CC(=O)N1c2ccccc2Sc2ccccc21,inconclusive: -43.5%
7,CC1=C(C)C(=O)N(C(C)CCc2ccccc2)C1=O (centres undefined),inconclusive: -21.5%
8,O=C(Nc1ccccc1C(=O)Nc1ccccn1)c1ccccc1F,active: 45%
9,CCCN1CCN(C(=O)C2CCN(c3nnc(C)c4c(C)n(-c5ccc(C)cc5)nc34)CC2)CC1,inconclusive: -1.9%
10,CCNS(=O)(=O)c1ccc(CCC(=O)NCc2ccccn2)cc1,inconclusive: -40.6%
11,CC(C)(C)N(Cc1ccccc1)C(=O)c1cccs1,inconclusive: 68.3%
12,COc1ccccc1NC(=O)C(C(C)C)N1C(=O)c2ccccc2C1=O (centres undefined),inconclusive: -49.3%
13,CCCNC(=O)C(=O)Nc1ccc(N(C)C)cc1,inconclusive: -16.7%
14,NC(=O)c1cccc(CC(=O)c2ccccc2)c1,inconclusive: 17.3%
15,CCc1nc2oc3ccccc3c(=O)c2c(=O)n1-c1ccccc1,inactive: 3%
16,CC(=O)Nc1ccc(NC(=O)c2ccccc2CC[N+](=O)[O-])cc1,inconclusive: -26.1%
17,CC(C)(C)c1ccc(OCCCN2CCCC2)cc1,inconclusive: -11.9%
18,Cc1ccc(Cn2c(N3CCN(CCO)CC3)nc3c2c(=O)n(C)c(=O)n3C)cc1,inconclusive: -8.9%
19,COc1ccc(CN2CCCC(C(=O)c3cccc(Cl)c3)C2)cc1 (centres undefined),inconclusive: 2.4%
20,O=C(Cc1ccccc1)N1CCN(Cc2cccc(Cl)c2)CC1,inconclusive: -1.1%
21,O=c1ncn(-c2cccc([N+](=O)[O-])c2)c2ccccc12,inconclusive: 27.4%
22,Cc1ccc(C)c(COc2coc(CN3CCN(C(=O)c4ccco4)CC3)cc2=O)c1,inconclusive: 10.8%
23,C=CCN1C(=O)C(CC(=O)NCC)SC1=Nc1ccccc1OC (centres undefined),inconclusive: -25.2%
24,Oc1ccc(N=Nc2c(O)ccc3ccccc23)cc1,inactive: -20.7%

row,Compound,inhibition
1,Cc1nn(-c2ccccc2)c(-c2ccccc2)c1C(=O)O,inconclusive: -45.9%
2,CC(NC(=O)c1ccccc1NC(=O)CN1CCc2ccccc2C1)c1ccccc1 (centres undefined),inactive: 3.1%
3,CC(OC(=O)c1cc(S(=O)(=O)N(C)C)ccc1N1CCCC1)C(=O)NCc1ccccc1 (centres undefined),inactive: 2.9%
4,C=CCn1c2ccccc2c2n[nH]c(=S)nc21,inconclusive: -2.5%
5,Cn1nc(C(C)(C)C)c([N+](=O)[O-])c1C(N)=O,inconclusive: -6.5%
6,Cn1nc(C(C)(C)C)cc1NC(=O)Nc1ccc(F)cc1F,inconclusive: -96.7%
7,Cc1ccccc1NC(=O)C[n+]1cc(-c2ccccc2)n2c1CCC2,inconclusive: 0.1%
8,COC(=O)c1sc(NC(=S)NC(=O)c2cc(OC)c(OC)c(OC)c2)nc1C,inconclusive: 20.4%
9,Cc1cc(C)cc(NC(=O)c2cccc(C(=O)Nc3cc(C)cc(C)c3)n2)c1,inconclusive: -10.3%
10,Cc1nnc(SCC(=O)N2CCN(C(=O)c3ccco3)CC2)n1-c1ccccc1,inactive: -4.1%
11,O=C1C2ON(c3ccc(Cl)cc3)C(c3ccco3)C2C(=O)N1c1ccccc1 (centres undefined),inactive: -1.4%
12,COc1ccccc1C(=O)c1c(C)c(CCC#N)n2ccccc12,inconclusive: -25.2%
13,O=C(/C=C/c1c(F)cccc1Cl)Nc1cccnc1,inconclusive: -3.6%
14,Cc1ccc(CSCC(=O)Nc2ccc(N3CCOCC3)cc2N2CCOCC2)cc1,inconclusive: -1.7%
15,CC1(C)CCC(=O)C=C1Nc1ccc(F)c(Cl)c1,inconclusive: -29.5%
16,COc1ccc(S(=O)(=O)N(C)CC(=O)N2CCCC2)cc1OC,inconclusive: -15.8%
17,COc1ccc(C(=O)OC(C)C(=O)NC(C)CCc2ccccc2)cc1OC (centres undefined),inconclusive: -25.4%
18,COc1ccc(-c2cc(C(=O)NCc3ccc(F)cc3)[nH]n2)c(C)c1,inactive: -8.6%
19,Brc1ccc(CN2CCN(Cc3c[nH]c4ccccc34)CC2)cc1,inconclusive: -25.9%
20,O=C(Nc1nccs1)c1cccnc1,inconclusive: 2.1%
21,CCCCn1c(O)c(C(C)=NCc2ccco2)c(=O)[nH]c1=O,inconclusive: 62.7%
22,Cc1onc(-c2c(F)cccc2Cl)c1C(=O)ONC(=O)c1ccccc1,inconclusive: 97.3%
23,Cn1nccc1C(=O)N1CCN(c2ccccc2F)CC1,inactive: 0.5%
24,O=C(Nc1ccnn1C1CCN(C(=O)c2cccnc2)CC1)c1cccc(F)c1,inactive: 0.5%

row,Compound,inhibition
1,COc1cccc(C2C([N+](=O)[O-])=C(N)Oc3cc(C)oc(=O)c32)c1 (centres undefined),inconclusive: 9.9%
2,CC[n+]1c(/C=C/c2ccc(OC)c(OC)c2)ccc2ccccc21,inconclusive: -0.3%
3,O=C(CCc1ccccc1)N1CCN(S(=O)(=O)c2cccs2)CC1,inactive: 1.3%
4,O=C(O)C1CCN(C(=O)c2ccc(S(=O)(=O)N3CCCCCC3)cc2)CC1,inactive: 1.6%
5,O=[N+]([O-])c1ccc2c(c1)nc1n2CCSC1,inconclusive: 2.3%
6,Cc1nc(COc2ccccc2Cl)sc1-c1ccnc(N)n1,inconclusive: -20%
7,COc1ccc(NC(=S)NC(=O)c2cncc(Br)c2)cc1,inconclusive: 16%
8,O=C(O)COCC(=O)Nc1ccc(Oc2ncnc3cc(Cl)ccc23)nc1,inconclusive: -96.8%
9,COc1cccc(NC(=O)c2ccc3nc(C)sc3c2)c1,inconclusive: -38.9%
10,COCCCNCCCCOc1ccc(Br)cc1C,active: 36.1%
11,Nc1cccc(Oc2ccc3c(c2)C(=O)NC3=O)c1,inconclusive: -10.7%
12,O=C1CCc2cc(NS(=O)(=O)c3ccccc3)cc3c2N1CC3,inconclusive: -6.2%
13,COc1ccc(C2CC(=O)c3cnn(-c4nc(C)cc(C)n4)c3C2)cc1OC (centres undefined),inconclusive: -3.5%
14,CC(=O)c1cc(F)c(N2CCCCCC2)cc1C,inconclusive: 24.2%
15,O=P(O)(CP(=O)(c1ccccc1)c1ccccc1)c1ccccc1,inconclusive: 0.1%
16,COc1ccc(OC)c(Nc2nc(-c3c(C)nc4ncccn34)cs2)c1,inconclusive: -33%
17,Cc1onc(-c2ccccc2)c1-c1ccnc(N)n1,inconclusive: 14.3%
18,Cc1ccc(S(=O)(=O)N2CCCCC2)cc1C(=O)N(C)CC(=O)Nc1cccc(F)c1,inconclusive: 0.7%
19,CCC1=[N+](CC(=O)c2ccc(Br)cc2)CCn2c(C)ccc21,inconclusive: 190%
20,CN(C)CCN1CCN(C2CN(Cc3cn(Cc4ccc(Cl)cc4)nn3)S(=O)(=O)C2)CC1 (centres undefined),inactive: -0.5%
21,CCCN1C2=C(C(=O)CC(C)(C)C2)C(c2ccc(F)cc2)C2=C1c1ccccc1C2=O (centres undefined),inactive: -5%
22,CC1CC1C(=O)OCC(=O)NC(=O)NCc1ccco1 (centres undefined),inconclusive: 14.2%
23,CC(C)n1c(SCC(=O)N2CCCC2)nc2c1c(=O)n(C)c(=O)n2C,inactive: -6.9%
24,CCn1c(SCc2cccc(C(=O)O)c2)nnc1-c1ccc(Cl)cc1,inconclusive: 16.3%

row,Compound,inhibition
1,CCn1c(O)c(/C=C2\C=NN=C2c2ccccc2)sc1=S,inconclusive: -6.1%
2,CS(=O)(=O)N1Cc2ccccc2CC1C(=O)OCC(=O)Nc1ccc2ccccc2c1 (centres undefined),inconclusive: -0.9%
3,CC(C)Cc1nc(N2CCCCC2)c(C#N)c2c1CCC2,inconclusive: 5.8%
4,N#Cc1nc(-c2cccs2)oc1NCc1ccccc1,inactive: -13.8%
5,CN(c1ccccc1)c1nc(N)c([N+](=O)[O-])c(NCCO)n1,inactive: -5.9%
6,O=C(Cc1ccc(F)cc1)N1CCOCC1,inactive: 19.3%
7,CCOC(=O)c1[nH]nc2c1C(=O)N(Cc1ccccc1)C2=O,inconclusive: 3.4%
8,COc1cccc2c(=O)cc(C)n(CC(=O)Nc3ccc(Br)cc3)c12,inconclusive: 78.7%
9,O=[N+]([O-])c1ccc(C=NNC(=S)NN=Cc2ccc([N+](=O)[O-])cc2)cc1,inactive: -0.1%
10,O=C(COC(=O)/C=C/c1cccs1)Nc1ccc2ccccc2c1,inactive: 0.9%
11,COc1ccc2nc(/C=N/NC(=O)CCNC(=O)OC(C)(C)C)ccc2c1,inconclusive: 81.3%
12,COc1cc(OC)c(OC)cc1/C=N/Nc1ccc(Cl)nn1,inconclusive: -3.9%
13,COC(=O)CSc1nnc(-c2ccccn2)n1N,inconclusive: -18.3%
14,O=C(Nc1sc2c(c1C(=O)O)CCCC2)c1ccc(F)cc1,inconclusive: 8.1%
15,CCOC(=O)C(=CNc1cccnc1Oc1ccc(C)c2c1CCC2)C(=O)OCC,inconclusive: 116%
16,Cn1c(CNC(=O)c2ccco2)nnc1SCC(=O)Nc1ccc(Cl)cc1,inconclusive: 8.8%
17,Clc1cccc(Cl)c1-c1noc(CN2CCOCC2)n1,inconclusive: -70.4%
18,Fc1cccc2sc(N3CCCCC3)nc12,inactive: 9.4%
19,CCOc1ccccc1NC(=O)C1C2CCC(O2)C1C(=O)O (centres undefined),inconclusive: -17.5%
20,CCn1c(=O)n(CCc2ccccc2)c(=O)c2c3c(sc21)CCCC3,inactive: 2.1%
21,Cc1nc(NN)nc(NCc2ccccc2)n1,inconclusive: -9.7%
22,CC(=O)NCC(=O)N[C@@H](CC(=O)OCc1ccccc1)C(=O)OCc1ccccc1 (Ac-Gly-Asp(OBn)-OBn),inconclusive: 10.8%

# 6 entries out of the list, sorted by formula weight, smallest number first.
row,Compound,inhibition
17,Clc1cccc(Cl)c1-c1noc(CN2CCOCC2)n1,inconclusive: -70.4%
14,O=C(Nc1sc2c(c1C(=O)O)CCCC2)c1ccc(F)cc1,inconclusive: 8.1%
20,CCn1c(=O)n(CCc2ccccc2)c(=O)c2c3c(sc21)CCCC3,inactive: 2.1%
11,COc1ccc2nc(/C=N/NC(=O)CCNC(=O)OC(C)(C)C)ccc2c1,inconclusive: 81.3%
15,CCOC(=O)C(=CNc1cccnc1Oc1ccc(C)c2c1CCC2)C(=O)OCC,inconclusive: 116%
22,CC(=O)NCC(=O)N[C@@H](CC(=O)OCc1ccccc1)C(=O)OCc1ccccc1 (Ac-Gly-Asp(OBn)-OBn),inconclusive: 10.8%

# 2 entries from above, tab-delimited.
row	Compound	inhibition
17	Clc1cccc(Cl)c1-c1noc(CN2CCOCC2)n1	inconclusive: -70.4%
18	Fc1cccc2sc(N3CCCCC3)nc12	inactive: 9.4%
